# Measurements reported in PubChem BioAssay AID720504 (National Center for Advancing Translational Sciences (NCATS), 2013).
# The chains behind the UniProt entries cited, without tags or fusion partners.
# UniProt P53350, whole entry, looked up: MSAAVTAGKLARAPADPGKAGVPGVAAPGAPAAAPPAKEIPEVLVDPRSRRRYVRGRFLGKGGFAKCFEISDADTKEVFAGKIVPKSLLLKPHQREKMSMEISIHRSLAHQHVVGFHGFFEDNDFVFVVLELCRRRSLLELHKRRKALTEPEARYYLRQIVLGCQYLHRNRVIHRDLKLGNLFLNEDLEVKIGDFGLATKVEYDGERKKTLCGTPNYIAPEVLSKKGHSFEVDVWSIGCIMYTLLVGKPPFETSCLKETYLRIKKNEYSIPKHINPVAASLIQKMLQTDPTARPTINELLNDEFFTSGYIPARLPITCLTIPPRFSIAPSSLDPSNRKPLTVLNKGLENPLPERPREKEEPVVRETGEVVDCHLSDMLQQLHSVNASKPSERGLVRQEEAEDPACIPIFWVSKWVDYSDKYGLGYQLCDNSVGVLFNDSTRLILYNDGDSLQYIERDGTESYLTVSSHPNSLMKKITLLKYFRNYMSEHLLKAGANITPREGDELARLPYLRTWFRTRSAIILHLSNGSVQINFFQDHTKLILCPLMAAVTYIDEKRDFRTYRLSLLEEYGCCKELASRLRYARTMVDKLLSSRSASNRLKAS
# “And” between values parts separate entries of the source, which are not always exact repeats. Identical values can stand only once. In all, about 360,000 compounds went through this assay and about 10,000 (2.8%) were called active. The shares of active, inactive and inconclusive entries below differ from those in the screen. Calls come from the whole dose curve; as a rule, active = well fitted inhibition curve with a large enough effect; inconclusive = small, poorly fitted or top-dose-only effect; inactive = flat fitted curve, though single readings scatter. A potency beside an inconclusive call is a rough fit, not a confirmed value.
# Target: Serine/threonine-protein kinase PLK1 (Homo sapiens) (UniProt P53350)
# Experiment: qHTS for Inhibitors of PLK1-PDB (polo-like kinase 1 - polo-box domain): Primary Screen; note: nearly all actives have a fitted effect of over 65% in size; for max response, negative = inhibition: series mostly up to about 57 µM
# Settings: Plk1 PBD binding of FITC phosphopeptide, fluorescence polarization
# % is set by controls: 0 for no effect and ±100 for the full control effect; potency is the fitted concentration of half-maximal effect.
SMILES,Potency,"max response, negative = inhibition"
c1ccc(-c2nn3c(Cn4nnc5ccccc54)nnc3s2)nc1,active: 26.7 µM,–
Brc1cccc(OCCCNC2CCCC2)c1,–,inactive: -3.5%
O=C(Nc1ccccc1)c1cc(-c2ccccc2Cl)no1,active: 3.77 µM,–
CCOC(=O)CN1C(=O)N(CC)C(C)=C(C(=O)OC)[C@@H]1c1ccccc1,–,inactive: -0.615%
COc1cc(/C=C(\CCC(=O)O)c2nc3ccccc3s2)ccc1OCC(=O)Nc1c(Cl)cccc1Cl,"inconclusive: 18.9 µM [inhibitor, partial curve]",–
CCCC(CCC)c1nnc(NC(=O)c2ccco2)s1,"inconclusive: 29.9 µM [inhibitor, single point]",–
O=C(NC(=S)NNC(=O)[C@H]1C[C@@H]1c1ccccc1)c1cccc(F)c1,–,inactive: -3.73%
NNC(=O)c1ccncc1,–,inactive: -0.154%
CCOC(=O)c1cccc(NC(=O)c2c(NCc3ccccc3)[nH]c(=O)[nH]c2=O)c1,"inconclusive: 33.6 µM [inhibitor, single point]",–
CCCCCCCCS(=O)c1sc2nc3c(cc2c1N)CCCC3 (stereo not drawn),"inconclusive: 13.4 µM [inhibitor, partial curve]",–
S=C(c1ccc(-c2ccc(Cl)c(Cl)c2)o1)N1CCOCC1,active: 26.7 µM,–
CCCCN(CC(=O)NC1CCCC1)C(=O)C(=O)Nc1ccc2c(c1)OCCO2,"inconclusive: 29.9 µM [inhibitor, partial curve]",–
O=C(NC(NC(=S)Nc1ccccc1C(=O)O)C(Cl)(Cl)Cl)c1ccco1 (stereo not drawn),active: 21.2 µM,–
O=[N+]([O-])c1ccccc1/C=C/C=N/n1c(-c2ccccc2F)n[nH]c1=S,"inconclusive: 18.9 µM [inhibitor, partial curve, poor fit]",–
Cc1ccc(CCNC(=O)CN2CCN(Cc3ccccc3F)C2=O)cc1,"inconclusive: 23.8 µM [inhibitor, single point]",–
O=C1C=CC(=O)N1CCCCCCCCCCN1C(=O)C=CC1=O,active: 1.19 µM,–
CCOC(=O)N1CCC(NCCNC(=O)c2ccc(Cl)cc2)CC1,"inconclusive: 26.7 µM [inhibitor, partial curve]",–
COC(=O)c1ccccc1NC1=C/C(=N\S(=O)(=O)c2cccs2)c2ccccc2C1=O,active: 26.7 µM and active: 18.9 µM,–
Cc1ccc(OCCCC(=O)N2CCOCC2)cc1,active: 11.9 µM,–
Cc1cccc(C)c1NC(=O)c1nc(S(=O)(=O)Cc2ccccc2)ncc1Cl,"inconclusive: 6.7 µM [inhibitor, partial curve]",–
COc1ccccc1/C=C1\SC(=S)N(CCC(=O)NNC(=O)c2ccccc2OC)C1=O,"inconclusive: 26.7 µM [inhibitor, partial curve, poor fit]",–
N#Cc1c(-c2ccccc2Cl)c2c([nH]c1=O)-c1ccccc1OC2,"inconclusive: 37.7 µM [inhibitor, single point]",–
S=c1[nH]nc(COc2ccc(Cl)cc2)o1,"inconclusive: 21.2 µM [inhibitor, single point]",–
O=C(COC(=O)c1cc[n+]([O-])cc1)Nc1ccc2c(c1)OCCO2,–,inactive: -7.26%
O=C(Nc1ccccc1C(F)(F)F)c1c(F)cccc1Cl,active: 29.9 µM,–

SMILES,Potency,"max response, negative = inhibition"
O=[N+]([O-])c1cc([N+](=O)[O-])c2oc(-c3ccccc3)c(Br)c2c1O,active: 8.44 µM,–
Cc1noc(C)c1C(=O)OC(C)C(=O)c1ccc(C(C)(C)C)cc1 (stereo not drawn),–,inactive: 3.81%
CCn1c(C)cc(/C=C2/SC(=S)NC2=O)c1C,–,inactive: -1.07%
O=C(Cn1cnc2c(cnn2-c2ccc(F)cc2)c1=O)N1CCCc2ccccc21,–,inactive: -10.1%
CCOc1ccc(CCNc2nc3ccc(C)cc3n3cnnc23)cc1OCC,"inconclusive: 37.7 µM [inhibitor, single point]",–
Cc1ccc(N2C(=O)CC(Sc3ccccc3C(=O)O)C2=O)cc1C (stereo not drawn),"inconclusive: 29.9 µM [inhibitor, single point]",–
CN(C)c1ccc(/C=N/n2c(COc3ccccc3)n[nH]c2=S)cc1,active: 10.6 µM,–
COc1ccccc1NC(=O)C(C/C=C(/C)Cl)C(C)=O (stereo not drawn),active: 29.9 µM,–
Cc1ccc(NC(=S)NNC(=S)NNc2ccccc2)cc1C,"inconclusive: 26.7 µM [inhibitor, partial curve]",–
COc1cc(Nc2ccn3nccc3n2)cc(OC)c1OC,–,inactive: -10.3%
NC(=S)NNc1cccc2cccnc12,–,inconclusive: -35.7% [inhibitor]
Cc1ccc(NC(=O)Nc2sc(=S)n(C)c2C)cc1,"inconclusive: 23.8 µM [inhibitor, single point]",–
CC(O)CSc1nc2c(c(=O)[nH]c(=O)n2C)n1Cc1ccccc1Cl (stereo not drawn),"inconclusive: 23.8 µM [inhibitor, single point]",–
Cc1cnc(C(=O)Nc2ccc(S(=O)(=O)NCC(C)C)cc2)cn1,"inconclusive: 29.9 µM [inhibitor, single point]",–
O=C(COC(=O)CSc1ccc([N+](=O)[O-])cc1)NCc1ccco1,"inconclusive: 26.7 µM [inhibitor, partial curve]",–
Cc1[nH]c2ccccc2c1Cc1n[nH]c(=S)o1,"inconclusive: 29.9 µM [inhibitor, single point]",–
COc1ccc(OC)c(S(=O)(=O)N2CCN(c3c(C)cccc3C)CC2)c1,–,inactive: 0.403%
Cc1cn(CC(=O)NCC(c2ccccc2)c2ccccc2)c(=O)[nH]c1=O,"inconclusive: 21.2 µM [inhibitor, partial curve]",–
CCOc1ccc2nc3sc(C(=O)N4CCN(C)CC4)c(N)c3cc2c1,–,inconclusive: -31.7% [inhibitor]
CCCCN(CC)Cc1ccc(CNC(=S)Nc2cccc(F)c2)o1,"inconclusive: 29.9 µM [inhibitor, single point]",–
COC(=O)CNC(=O)C1Nc2ccccc2C2C=CCC12 (stereo not drawn),"inconclusive: 26.7 µM [inhibitor, partial curve]",–
COc1cccc(C(Nc2ccccn2)c2oc(CO)cc(=O)c2O)c1 (stereo not drawn),active: 21.2 µM,–
CN(C)C(=S)N=Nc1[nH]c2ccccc2c1O,active: 16.8 µM,–
O=C(N/N=C/c1cc(Br)c(Br)s1)c1ccncc1,–,inactive: -7.04%
Cc1ccc(-n2cc(CN3CCC(O)(c4ccccn4)CC3)c(-c3ccc(F)cc3)n2)cc1,–,inactive: -10.9%

SMILES,Potency,"max response, negative = inhibition"
CSc1nsc(SCC(=O)Nc2ccccc2F)n1,–,inactive: -16.5%
COc1cccc(-c2cc(C(F)(F)F)nc(-n3cccn3)n2)c1,"inconclusive: 21.2 µM [inhibitor, partial curve]",–
S=c1[nH]nc(-c2ccco2)n1/N=C/c1cccc(Cl)c1,"inconclusive: 5.97 µM [inhibitor, partial curve]",–
Cc1ccc(N(CC(=O)NCC2CCCO2)C(=O)CCC(=O)Nc2ccccn2)cc1C (stereo not drawn),"inconclusive: 26.7 µM [inhibitor, single point]",–
CCOC(=O)C1(Cc2ccccc2C(F)(F)F)CCN(C2CCN(C(C)C)CC2)CC1,"inconclusive: 37.7 µM [inhibitor, single point]",–
C#CCOCCOCCOCCNc1nc(OC)nc(N2CCN(C(=O)[C@H](CCC(=O)O)n3cc(C(N)CO)nn3)CC2)n1 (stereo partly drawn),–,inactive: 7.46%
COCCOC(=O)c1cc(C(=O)c2cc(Cl)ccc2O)coc1=N,"inconclusive: 23.8 µM [inhibitor, partial curve]",–
Cn1c(N)c(C(=O)COC(=O)c2cnc(Cl)c(Cl)c2)c(=O)n(C)c1=O,"inconclusive: 21.2 µM [inhibitor, single point]",–
Cn1c(SCC(=O)Nc2ccc3nc(SCC(=O)N4CCCC4)sc3c2)nnc1-c1ccccc1,"inconclusive: 26.7 µM [inhibitor, single point]",–
COc1cccc(C2=NOC(C(=O)N3CCN(c4ccccc4)CC3)C2)c1OC (stereo not drawn),"inconclusive: 29.9 µM [inhibitor, partial curve]",–
CSc1ccccc1NC(=O)Cn1nc([N+](=O)[O-])c(Cl)c1C,"inconclusive: 13.4 µM [inhibitor, partial curve]",–
CC(C)CCNC(=O)c1ccc2c(c1)N(Cc1ccccc1)C(=O)CS2=O (stereo not drawn),–,inconclusive: -35.6% [inhibitor]
Cc1ccc(NC(=O)CSc2nnc(-c3cccnc3)o2)c(C)c1,"inconclusive: 26.7 µM [inhibitor, single point]",–
CC(C)(C)c1cc(C(F)(F)F)n2ncc(-c3ccccc3)c2n1,"inconclusive: 18.9 µM [inhibitor, partial curve]",–
COc1cc(C2c3c(n[nH]c3C)C(=O)N2c2ccc(Br)cc2)ccc1O (stereo not drawn),"inconclusive: 13.4 µM [inhibitor, partial curve]",–
CC(NC(=S)NC1CCCCC1)c1ccccc1 (stereo not drawn),–,inactive: -2.02%
Cc1ccc(NCCCCO)cc1C,"inconclusive: 21.2 µM [inhibitor, single point]",–
COCCNc1nc2c(c(=O)n(C)c(=O)n2C)n1Cc1cccc(C)c1,"inconclusive: 21.2 µM [inhibitor, single point]",–
COc1ccc(CCNS(=O)(=O)c2csc(C(N)=O)c2)cc1OC,–,inactive: -6.82%
CCCC(=O)OCCNc1cc(Sc2nc3ccccc3[nH]2)c2nonc2c1[N+](=O)[O-],active: 1.89 µM,–
Cc1ccc(C2C(C#N)=C(N)Oc3c2oc(CO)cc3=O)o1 (stereo not drawn),–,inactive: -4.42%
O=C(COc1cccc(F)c1)Nc1nc(-c2ccccn2)cs1,active: 10.6 µM,–
CSCCCNC(=S)Nc1cccc(S(=O)(=O)NC2=NCCC2)c1,"inconclusive: 29.9 µM [inhibitor, single point]",–
